Test results reported in US20230340027A1, “UBIQUITIN HIGH AFFINITY PEPTIDES, AND METHODS OF USING SAME, AND IDENTIFYING SAME” (TECHNION RESEARCH & DEVELOPMENT FOUNDATION LIMITED, priority 2020, published 2023).
Some entries share one result that the patent states for a list of compounds. Some compounds share one range, which may span the group rather than tell each member.

Target: T1, biotin-tetra-UbK48 (Homo sapiens, UniProt P0CG47)
T1 construct: a Ub polymer comprises Ub monomers linked to one another at lysine (Lys) residue at position 48 (K48); made in house; host or cells: total chemical synthesis (no expression host)
Assay: Fluorescence-based competitive assay for peptide screening (relative binding vs Ub4_ix)
Conditions: 5 molar equiv unlabeled peptide, competition with Ub4_ix-FITC; fluorescence inversely proportional to affinity
Procedure: Streptavidin-coated microplate (96 well plate) was washed (3×100 μl) with HEPES buffer. Then, 1 μg of biotin-tetra-UbK48 in 100 μl of HEPES buffer was incubated in each well for 30 minutes at room temperature (RT). Additional wells were kept free of biotin-tetra-UbK48 for subsequent blank subtraction. Following a washing step, unlabeled candidate peptides, including peptide-standard (Ub4_ix), were incubated in an excess amount (5 molar equiv. relative to biotin-tetra-UbK48) for 30 minutes at RT to saturate binding to the target. […] Finally, following washing, each well was treated with 100 μl of 6 M Gn·HCl at RT for 30 minutes to release the bound peptides. Then, the solution with the released peptides was transferred to Nunc black 96-well plate and fluorescence was measured (λ excitation=480 nm and λ emission=525 nm). The obtained values were then normalized, and compared with peptide standard, while the fluorescence signal was inversely proportional to the binding affinity of the peptide. The calculations of relative change in binding were performed according to the formula: Y=−[1−(a/b)]×100, where Y is the change in the signal relative to the standard Ub4_ix (in percentage); a is signal measured for each peptide variant (in relative fluorescence units); b is signal measured for Ub4_ix.
The inventors envisioned a screening strategy to proceed through four main steps, each terminated by washings with binding buffer. First, biotin tagged tetra-UbK48 was immobilized in a constant amount (1 μg per well) in streptavidin covered 96 well plate (FIG. 1(i and ii)). Then, unlabeled candidate peptides were incubated in excess in each well to saturate binding to the target. […] Finally, the bound peptides were released from wells by treatment with 6 M guanidine hydrochloride (Gn·HCl) solution followed by measuring the gained fluorescence (FIG. 1(i)). The obtained values were then compared to the fluorescence of the control well containing the unlabeled peptide to calculate relative binding. The gained fluorescence was inversely proportional to the binding affinity of the peptide candidate. In addition to measuring the relative binding, the herein disclosed protocol can be also slightly modified to determine a dissociation constant (Kd) of labeled peptides. For this purpose, after the immobilization step of tetra-Ub, different concentrations of the labeled peptides were incubated, followed by release with 6 M Gn·HCl and fluorescence measurement (FIG. 1(ii)) to plot a binding curve and calculate the dissociation constant (FIG. 1G).

Change in the relative fluorescence signal compared to Ub4_ix (improved binding), 20-40%:
Ub4_ix_S7W: Ub4_ix cyclic peptide mutant with Trp at position 7 (WLYLDDWGDWWICG; cyclised or stapled)
Ub4_ix_S7Y: Ub4_ix cyclic peptide mutant with Tyr at position 7 (WLYLDDYGDWWICG; cyclised or stapled)
Ub4_ix_S7D: Ub4_ix cyclic peptide mutant with Asp at position 7 (WLYLDDDGDWWICG; cyclised or stapled)
peptide 14: cyclic peptide with free thiol Cys at position 7; sequence WLYLDDCGDWWICG (SEQ ID NO: 13) (cyclic)
